Reference: PubChem BioAssay AID720504 (National Center for Advancing Translational Sciences (NCATS), 2013)
About 10,000 (2.8%) of roughly 360,000 compounds were called active. Inconclusive results, whose numbers are uncertain, are shown with a selection of clear calls. Calls follow the shape of the dose curve; as a rule, active = well fitted inhibition curve with a large enough effect; inconclusive = small, poorly fitted or top-dose-only effect; inactive = flat fitted curve, though single readings scatter. Where the call is inconclusive, the potency comes from a doubtful curve fit.

Sequences of proteins named here, by UniProt entry; tags and fusion partners are left off.
UniProt P53350, whole entry, looked up: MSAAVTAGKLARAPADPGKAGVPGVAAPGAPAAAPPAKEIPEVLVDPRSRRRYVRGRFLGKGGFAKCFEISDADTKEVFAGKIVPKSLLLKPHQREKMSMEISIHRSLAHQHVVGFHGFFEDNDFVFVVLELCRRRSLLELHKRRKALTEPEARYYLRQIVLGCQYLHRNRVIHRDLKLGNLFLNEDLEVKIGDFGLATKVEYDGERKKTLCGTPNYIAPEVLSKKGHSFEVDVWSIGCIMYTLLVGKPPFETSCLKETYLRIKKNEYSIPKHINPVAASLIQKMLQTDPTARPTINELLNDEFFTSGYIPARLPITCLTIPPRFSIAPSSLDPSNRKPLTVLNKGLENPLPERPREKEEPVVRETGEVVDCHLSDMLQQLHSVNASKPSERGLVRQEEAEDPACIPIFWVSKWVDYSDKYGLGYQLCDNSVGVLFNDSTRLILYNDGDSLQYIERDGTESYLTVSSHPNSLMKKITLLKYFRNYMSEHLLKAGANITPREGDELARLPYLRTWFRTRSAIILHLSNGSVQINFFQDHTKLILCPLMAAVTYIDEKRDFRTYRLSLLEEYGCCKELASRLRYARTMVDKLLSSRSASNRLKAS

molecular target: Serine/threonine-protein kinase PLK1 (Homo sapiens) (UniProt P53350); assay: qHTS for Inhibitors of PLK1-PDB (polo-like kinase 1 - polo-box domain): Primary Screen; details: Plk1 PBD binding of FITC phosphopeptide, fluorescence polarization; also: nearly all actives have a fitted effect of over 65% in size; as to max response, negative = inhibition: series mostly up to about 57 µM
% is scaled to controls: 0 for no effect and ±100 for the full control effect; potency is read from the fitted curve at half-maximal effect.

| Structure (SMILES) | Potency | max response, negative = inhibition |
| --- | --- | --- |
| N#Cc1ccccc1Cn1cc(C(=O)c2cccs2)c2ccccc21 | inconclusive: 26.7 µM [inhibitor, single point] | – |
| CC(=C1C(=O)c2ccccc2C1=O)N1CCN(CCN=Cc2c(O)n(C)c(=O)n(C)c2=O)CC1 | – | inconclusive: -31.5% [inhibitor] |
| Cc1ccc2c(c1)C=CC(C#N)N2C(=O)Oc1ccccc1 (configuration not stated) | inconclusive: 13.4 µM [inhibitor, partial curve] | – |
| O=C1NC(=O)C(=Cc2ccc(-c3ccc(F)cc3O)o2)C(=O)N1 | active: 1.19 µM | – |
| CN(C)c1nc(-c2ccccc2)[n+](C)s1 | active: 4.74 µM | – |
| CC1CN=C(NCCc2ccccc2)S1 (configuration not stated) | – | inactive: 2.22% |
| COc1cc(CNCCc2c[nH]c3ccccc23)cc(OC)c1 | – | inactive: -11.2% |
| Cc1cc(O)c2c(c1)C(=O)c1cc(O)cc(O)c1C2=O | inconclusive: 26.7 µM [inhibitor, partial curve] | – |
| CC(C)n1c(=O)c(C=Nc2ccc(S(N)(=O)=O)cc2)c(O)n(Cc2ccco2)c1=O | – | inactive: -27% |
| Oc1c(Cl)c(Cl)c(Cl)c(Cl)c1Cl | active: 26.7 µM | – |
| COCCCNC(=O)c1c(NC(=O)c2ccco2)n(Cc2ccccc2)c2nc3ccccc3nc12 | inconclusive: 26.7 µM [inhibitor, partial curve] | – |
| O=C1NC(=O)N(CCc2ccc(F)cc2)C(=O)/C1=C/c1cccs1 | active: 1.06 µM | – |
| COC(=O)C1=C(C)NC(C)=C(C(=O)OC)C1c1ccccc1[N+](=O)[O-] | inconclusive: 4.74 µM [inhibitor, full curve] | – |
| COc1ccc(OC)c(N2C(=O)NC(=O)/C(=C\c3ccc([N+](=O)[O-])s3)C2=O)c1 | active: 2.67 µM | – |
| CCOc1cccc(N2C(=O)CC(=O)NC2=O)c1 | inconclusive: 29.9 µM [inhibitor, single point] | – |
| COc1cc(/C=C2\C(=O)NC(=O)N(c3ccc(C)cc3)C2=O)cc(OC)c1O | inconclusive: 6.7 µM [inhibitor, partial curve] | – |
| CN1Cc2c(c(C#N)c(N)n(C)c2=S)CC1(C)C | inconclusive: 29.9 µM [inhibitor, partial curve] | – |
| O=C(C1CC(c2ccc(Cl)c(Cl)c2)=NO1)N1CCC2(CC1)OCCO2 (configuration not stated) | – | inactive: 0.915% |
| C#CCN(C[C@@H]1[C@@H](OC(=O)Nc2c(C)noc2C)[C@@H](OC(=O)Nc2c(C)noc2C)Cn2c(=O)n(CCCCCC)c(=O)n21)S(=O)(=O)c1ccc(C)cc1 | inconclusive: 29.9 µM [inhibitor, single point] | – |
| O=C1NC(=O)C(=Cc2ccccc2OCCOc2ccc([N+](=O)[O-])cc2)C(=O)N1 | active: 5.97 µM | – |
| COc1cc(NS(=O)(=O)c2ccc(NC(=S)NC(=O)CC(C)C)cc2)nc(OC)n1 | inconclusive: 29.9 µM [inhibitor, partial curve] | – |
| NP(=O)(Oc1ccc(Cl)cc1)Oc1ccc(Cl)cc1 | – | inconclusive: -31.4% [inhibitor] |
| COc1ccc2c(c1OC)C(=O)OC2c1c(O)n(C2CCCCC2)c(=O)[nH]c1=O (configuration not stated) | inconclusive: 21.2 µM [inhibitor, single point] | – |

Among those listed so far, these contain fluorine.

| Structure (SMILES) | Potency | max response, negative = inhibition |
| --- | --- | --- |
| O=C1NC(=O)C(=Cc2ccc(-c3ccc(F)cc3O)o2)C(=O)N1 | active: 1.19 µM | – |
| O=C1NC(=O)N(CCc2ccc(F)cc2)C(=O)/C1=C/c1cccs1 | active: 1.06 µM | – |

Single entries from the results shown:
For max response, negative = inhibition, NP(=O)(Oc1ccc(Cl)cc1)Oc1ccc(Cl)cc1 has inconclusive: -31.4% [inhibitor]
For max response, negative = inhibition, COc1cc(CNCCc2c[nH]c3ccccc23)cc(OC)c1 has inactive: -11.2%

Next entries follow.

| Structure (SMILES) | Potency | max response, negative = inhibition |
| --- | --- | --- |
| CCCCn1c(NC(=O)c2ccc(Br)o2)c(C(=O)OCC)c2nc3ccccc3nc21 | – | inconclusive: -31.2% [inhibitor] |
| CC(C)(C)c1nc(NCc2ccc3c(c2)OCO3)c2nnn(Cc3ccccc3Cl)c2n1 | inconclusive: 26.7 µM [inhibitor, partial curve] | – |
| N#CCSc1nnc(-c2ccc3c(c2)OCO3)o1 | inconclusive: 26.7 µM [inhibitor, single point] | – |
| O=C1NC(=O)N(Cc2ccccc2Cl)C(=O)/C1=C/N1CCOCC1 | inconclusive: 26.7 µM [inhibitor, partial curve] | – |
| COc1ccccc1-n1c(O)c(/C=C2\C=Nc3ccccc32)c(=O)[nH]c1=O | inconclusive: 4.74 µM [inhibitor, single point] | – |
| COC(=O)C(Cc1ccc(N(CCCl)CCCl)cc1)N=Cc1ccccc1O (configuration not stated) | inconclusive: 29.9 µM [inhibitor, single point] | – |
| COC(=O)C1=C(c2ccc(F)cc2OCc2ccccc2)C[C@@H]2CC[C@H]1N2C(=O)NCc1ccc(F)cc1 | – | inactive: -1.99% |
| CN(C)C(=O)Oc1ccc(-c2nnco2)cc1 | inconclusive: 29.9 µM [inhibitor, single point] | – |
| CCOC(=O)[C@]12Cc3ccc4ccccc4c3[C@H]1N(Cc1ccccc1)C(=O)c1ccccc12 | inconclusive: 23.8 µM [inhibitor, single point] | – |
| Nc1ccc2ccccc2c1 | – | inactive: -8.62% |
| Cc1ccc2c(c1)=NC(=O)/C(=C/c1c(O)[nH]c(=O)[nH]c1=O)C=2 | active: 15 µM | – |
| Cc1cccc(N2C(=O)NC(=O)/C(=C\c3cccn3-c3ccc(Cl)cc3)C2=O)c1 | active: 0.532 µM | – |
| Cc1cc(C=C2C(=O)N(C)C(=S)N(C)C2=O)c(C)n1C1CCCC1 | inconclusive: 2.38 µM [inhibitor, full curve] | – |
| COC(=O)Cn1cc(C=C2C(=O)NC(=O)NC2=O)c2ccccc21 | inconclusive: 4.23 µM [inhibitor, partial curve] | – |
| O=C1NS(=O)c2cc([N+](=O)[O-])cc([N+](=O)[O-])c21 (configuration not stated) | active: 23.8 µM | – |
| Cc1ccc(-n2c(C)cc(/C=C3/C(=O)NC(=O)N(Cc4ccco4)C3=O)c2C)cc1 | inconclusive: 16.8 µM [inhibitor, partial curve] | – |
| COc1ccccc1CCNC(=O)CCC(=O)N1CC2C[C@@H](C1)Cn1c2cccc1=O | – | inactive: -12.4% |
| COc1ccc(C=O)cc1O | – | inactive: -1.23% |
| Cc1ccc(S(=O)(=O)Oc2ccccc2C=C2C(=O)NC(=O)NC2=O)cc1 | active: 4.74 µM | – |
| O=C1NC(=S)NC(=O)C1=Cc1c(Cl)cccc1Cl | active: 4.74 µM | – |
| COC(=O)COc1ccc(C(c2c(C)[nH][nH]c2=O)c2c(C)[nH][nH]c2=O)cc1 | inconclusive: 37.7 µM [inhibitor, single point] | – |
| Cc1cc(C)cc(-n2c(C)cc(/C=C3\C(=O)NC(=O)N(C)C3=O)c2C)c1 | inconclusive: 37.7 µM [inhibitor, partial curve] | – |
| C=CCN=C(SCC(=O)c1ccc(Cl)cc1)c1c(O)n(C)c(=O)n(C)c1=O | inconclusive: 26.7 µM [inhibitor, single point] | – |

| Structure (SMILES) | Potency | max response, negative = inhibition |
| --- | --- | --- |
| O=C(Cc1ccccc1)NC(Oc1ccccc1Cl)C(Cl)(Cl)Cl (configuration not stated) | inconclusive: 10.6 µM [inhibitor, partial curve] | – |
| CN1C(=O)N(C)C(=O)C2(Cc3cc(NC(=O)c4ccc(F)cc4)ccc3N3CCCC32)C1=O (configuration not stated) | inconclusive: 29.9 µM [inhibitor, single point] | – |
| CN1[C@@H]2CC[C@H]1CC(OC1c3ccccc3CCc3ccccc31)C2 (some centres not stated) | – | inactive: 2.33% |
| COC(=O)C1C2c3ccccc3OC1(C)N=c1s/c(=C/c3cnn(C)c3)c(=O)n12 (configuration not stated) | – | inactive: -15.7% |
| CCCCCCn1c(=O)c(C(=O)Nc2cnccn2)c(O)c2ccccc21 | – | inconclusive: -36.4% [inhibitor] |
| Cc1ccnc(-n2c(C)nc3ccccc3c2=O)c1 | active: 26.7 µM | – |
| CN1CCc2nc(SC(C(=O)O)c3ccccc3)c(C#N)c(-c3cccs3)c2C1 (configuration not stated) | inconclusive: 29.9 µM [inhibitor, single point] | – |
| O=C(O)COc1ccc(/C=C2/SC(=S)N(Cc3ccccc3)C2=O)cc1 | inconclusive: 23.8 µM [inhibitor, single point] | – |
| C=CCN1C(=O)NC(=O)/C(=C\c2ccc(-c3ccccc3[N+](=O)[O-])o2)C1=O | active: 1.5 µM | – |
| CCOC(=O)[C@]12Cc3cc(C)ccc3[C@H]1N(Cc1ccccc1)C(=O)c1cc(OC)ccc12 | inconclusive: 13.4 µM [inhibitor, partial curve] | – |
| O=c1[nH]c(=O)n(Cc2ccccc2)c(O)c1/C=C1\C=Nc2ccccc21 | inconclusive: 23.8 µM [inhibitor, partial curve] | – |
| Cn1c(=O)c2c(nc(N/N=C/c3c(O)n(C4CCCCC4)c(=S)[nH]c3=O)n2C)n(C)c1=O | inconclusive: 23.8 µM [inhibitor, single point] | – |
| Cc1cc(C=C2C(=O)NC(=S)NC2=O)c(C)n1-c1ccc2c(c1)OCO2 | active: 2.67 µM | – |
| Nn1c(Cc2cccc3ccccc23)n[nH]c1=S | active: 8.44 µM | – |
| CCOC(=O)[C@]12Cc3c(cc(OC)c(OC)c3OC)[C@H]1N(C(C)C)C(=O)c1cc(OC)ccc12 | inconclusive: 11.9 µM [inhibitor, single point] | – |
| CN(C)c1ccc(C=C2C(=O)NC(=S)NC2=O)cc1 | active: 2.67 µM | – |
| O=C(CCS(=O)(=O)c1ccc(Br)cc1)N1CCC2(CC1)OCCO2 | – | inactive: -8.35% |
| C[N+](C)(C)CC1CCCC(C[N+](C)(C)C)C1=O (configuration not stated) | inconclusive: 23.8 µM [inhibitor, partial curve] | – |
| C=C1C(=O)O[C@@H]2C[C@@H](C)[C@@H]3C=CC(=O)[C@@]3(C)[C@@H](OC(=O)CC(=O)O[C@H]3[C@@H]4C(=C)C(=O)O[C@@H]4C[C@@H](C)[C@@H]4C=CC(=O)[C@]43C)[C@H]12 | inconclusive: 21.2 µM [inhibitor, partial curve] | – |
| Cc1c(C=C2C(=O)NC(=O)NC2=O)c(=O)n(-c2ccccc2)n1C | inconclusive: 21.2 µM [inhibitor, partial curve] | – |
| O=C1NC(=S)NC(=O)C1Cc1ccccc1 | inconclusive: 26.7 µM [inhibitor, partial curve] | – |
